Test results from US9522160B2, “Ophthalmic formulations” (Inotek Pharmaceuticals Corporation, priority 2013, dated 2016).
For at least one compound, name, drawing or mass did not settle the structure.

Assay: Stability study of a 3% suspension of Compound A (Formulation 3) spiked with latanoprost; latanoprost and latanoprost acid by HPLC
Assay type: physicochemical
Method: Latanoprost is added, usually aseptically, to the Formulation after the curing step or after all other formulation steps as described above. For example latanoprost can be spiked into Formulation 3 with Compound A at 3.0% (Example 5 above) to prepare a unit dosage of a combination of Compound A with a concentration of latanoprost of about 50 ug/ml. A stability study has been done to study the stability of a combination of a suspension of Compound A as Formulation 3 and latanoprost. The stability study is described below.
A 10 mL sample of a 3% suspension of Compound A spiked with latanoprost at 50 μg/mL was used for the stability study. Ethanol was used to disperse the latanoprost into the suspension of Compound A. The final solution ethanol target was 0.5% so for 10 mLs of the suspension, the latanoprost was dissolved in 50 μL of ethanol.
For 10 mls of the suspension, 0.5 mg of latanoprost was needed for the spike. A 50 μL sample of a commercial solution containing 10 mg/mL of latanoprost in methyl acetate was taken and the solvent removed under vacuum. The residue was taken up in 50 μL of ethanol.
A 9.950 mL sample of the suspension, taken with a 5 mL autopipette (2×4.975 mL) was spiked with the ethanol solution with mixing.
After taking a 500 μL T0 sample, the bulk solution was divided into 3 containers that were set down at 2-8° C., 25° C./60RH and 40° C./75RH.
The solution in this case would be 0.5 mg in 8.5 mL volume or […] of latanoprost in the suspension. Therefore for analysis, the theoretical latanoprost in solution after a 50% dilution with acetonitrile was 29.4 μg/mL.
A calibration curve of latanoprost acid was also prepared using the commercial solution that contained 10 mg/mL in methyl acetate.
In contrast to the latanoprost standards, these solutions were prepared in 100% acetonitrile.
The solutions injected were 5, 2.5 and 1.25 μg/mL solutions.
The stability samples were prepared by vortex mixing and sonication of the suspension followed by a 50% dilution with acetonitrile. After centrifugation the supernatant was injected on the HPLC.
The assay results are shown below in Table 2 where the calculated concentration is shown in μg/mL. (The theory concentration is 29.4 μg/ml),
4 week samples. For the 4 week 25° C./60 and 40° C./75 samples the calculated latanoprost acid values were 0.4 and 0.3 μg/mL respectively. The impurities increased slightly at 3 months. For the 3 month 25° C./60 and 40° C./75 samples the calculated latanoprost acid values were 0.63 and 3.92 μg/mL respectively.
Except for the 40° C./75 sample at 3 months the values for all other samples were below the calibration curve concentrations and therefore below the detection level of the method.

Question: What does the source list for O=C(O)CCC/C=C\C[C@@H]1[C@@H](CC[C@@H](O)CCc2ccccc2)[C@H](O)C[C@@H]1O [latanoprost acid]?
Answer: latanoprost acid impurity peak (3 month, 2-8° C.): too small to integrate; calculated latanoprost acid value (3 month, 25° C./60, below the calibration curve concentrations): 0.63 µg/mL; calculated latanoprost acid value (3 month, 40° C./75): 3.92 µg/mL; calculated latanoprost acid value (4 week, 25° C./60, below the calibration curve concentrations): 0.4 µg/mL; calculated latanoprost acid value (4 week, 40° C./75, below the calibration curve concentrations): 0.3 µg/mL
